Results are given in words; binding and its absence hold for the method and conditions named. Binding seen in cells or lysates may run through a third protein.
Molecular target: T1, Terminal uridyltransferase 7 (not stated (human or mouse cDNA cloned)) (UniProt Q5VYS8)
T1 sequence: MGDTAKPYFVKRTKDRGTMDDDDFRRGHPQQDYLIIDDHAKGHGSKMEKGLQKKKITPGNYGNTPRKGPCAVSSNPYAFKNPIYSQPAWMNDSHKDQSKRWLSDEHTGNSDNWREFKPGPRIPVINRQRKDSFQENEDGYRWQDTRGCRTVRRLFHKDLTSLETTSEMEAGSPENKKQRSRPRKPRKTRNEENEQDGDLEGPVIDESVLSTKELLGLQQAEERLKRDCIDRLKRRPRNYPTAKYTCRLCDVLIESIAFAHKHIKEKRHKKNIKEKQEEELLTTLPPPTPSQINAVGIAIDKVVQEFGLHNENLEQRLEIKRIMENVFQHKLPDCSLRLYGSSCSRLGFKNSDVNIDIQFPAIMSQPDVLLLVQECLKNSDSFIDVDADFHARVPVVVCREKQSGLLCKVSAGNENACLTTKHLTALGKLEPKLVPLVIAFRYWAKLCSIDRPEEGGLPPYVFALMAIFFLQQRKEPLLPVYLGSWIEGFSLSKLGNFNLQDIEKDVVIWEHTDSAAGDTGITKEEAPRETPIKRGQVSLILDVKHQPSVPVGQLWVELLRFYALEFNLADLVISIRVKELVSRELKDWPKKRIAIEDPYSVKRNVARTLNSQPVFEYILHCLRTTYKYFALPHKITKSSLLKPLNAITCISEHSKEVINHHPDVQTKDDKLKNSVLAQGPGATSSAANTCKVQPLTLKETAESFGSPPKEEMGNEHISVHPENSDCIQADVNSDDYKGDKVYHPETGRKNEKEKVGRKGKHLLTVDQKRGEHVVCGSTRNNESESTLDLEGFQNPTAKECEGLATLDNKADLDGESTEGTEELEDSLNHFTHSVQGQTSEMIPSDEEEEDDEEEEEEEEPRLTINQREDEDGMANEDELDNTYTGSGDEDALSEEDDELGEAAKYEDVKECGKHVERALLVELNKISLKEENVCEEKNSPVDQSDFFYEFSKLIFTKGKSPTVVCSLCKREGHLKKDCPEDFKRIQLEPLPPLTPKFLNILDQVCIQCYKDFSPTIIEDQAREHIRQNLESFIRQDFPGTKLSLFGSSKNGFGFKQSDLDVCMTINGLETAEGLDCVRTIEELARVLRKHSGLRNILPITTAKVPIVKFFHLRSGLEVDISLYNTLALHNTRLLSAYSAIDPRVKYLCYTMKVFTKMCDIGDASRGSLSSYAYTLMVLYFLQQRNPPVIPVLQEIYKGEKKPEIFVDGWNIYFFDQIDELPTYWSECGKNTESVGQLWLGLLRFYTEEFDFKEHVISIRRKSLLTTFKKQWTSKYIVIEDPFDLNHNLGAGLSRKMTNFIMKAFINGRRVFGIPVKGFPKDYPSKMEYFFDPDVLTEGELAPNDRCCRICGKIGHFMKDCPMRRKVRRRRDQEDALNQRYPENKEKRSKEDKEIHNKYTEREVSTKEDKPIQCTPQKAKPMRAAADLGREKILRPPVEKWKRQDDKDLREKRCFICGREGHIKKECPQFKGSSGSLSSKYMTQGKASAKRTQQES
Experiment: co-IP; cell extracts in APB lysis buffer incubated with antibody and Protein A-conjugated agarose beads overnight at 4 °C, washed three times, immunoblotting; TUT7 precipitated, Regnase-1 probed; cells and constructs only in Supplementary Fig. 8a, b

binding: no binding
Substance: Regnase-1 (enzyme)
